Assay results taken from US20240400686A1.

Target: human CD3 on cells (Jurkat cells; T cells of human PBMCs) (human)
Assay: flow cytometry, hybridoma culture supernatants on Jurkat cells

B1: antibody 3F11 (antibody, V domains shown)
VH: QVQLQQSGPDLVRPGASVKMSCKASGYTFTNYYVHWLNQRPGQGLEWIGWIYPGDGSTKFNEKFKGKTTLTADKSSSTAYILLSSLTSADSAIYFCTRDAGYYFDVWGAGTTVTVSS
VL: DIVMSQSPSSLAVSAGEKVTISCKSSQSLLNNRTRKNYLAWYQQKPGQSPKLLIYWASTRESGVPDRFTGSGSGTDFTLTISSVQAEDLAVYYCKQSYILRTFGGGTKLEIK
  binding: binds

These are yes or no findings as the source states them, for the method shown. Binding can be weak; no strength is given.
